Laboratory results reported in the supplement of paper PMC4604168 (melanoma cell lines).
The other results are listed elsewhere or left out. Repeats are few or missing, and single values can be far off.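 Cells were imaged in 1,536-well plates, and nuclei stained with an antibody against cleaved PARP were counted against all DNA-stained nuclei to give the apoptosis fraction. Screening doses were chosen to leave most cells alive, and resting and induced cleaved-PARP levels differ strongly between cell lines.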

What was measured:
Experiment in all cases: cleaved PARP positive nuclei fraction relative to DMSO control; melanoma cells; higher = more apoptosis
Conditions in all cases: library dose: low library concentration; 72 h
MZ2-MEL = tested on: MZ2-MEL
MeWo = tested on: MeWo
RPMI7951 = tested on: RPMI7951
RVH-421 = tested on: RVH-421
SkMel28 = tested on: SkMel28
SkMel2 = tested on: SkMel2
SkMel30 = tested on: SkMel30
UACC62 = tested on: UACC62
WM115 = tested on: WM115
WM1716 = tested on: WM1716
WM1745 = tested on: WM1745
WM3526 = tested on: WM3526
WM3619 = tested on: WM3619
WM451Lu = tested on: WM451Lu
SkMel5 = tested on: SkMel5
UACC257 = tested on: UACC257

Row | Compound | cleaved PARP positive nuclei fraction (MZ2-MEL) | cleaved PARP positive nuclei fraction (MeWo) | cleaved PARP positive nuclei fraction (RPMI7951) | cleaved PARP positive nuclei fraction (RVH-421) | cleaved PARP positive nuclei fraction (SkMel28) | cleaved PARP positive nuclei fraction (SkMel2) | cleaved PARP positive nuclei fraction (SkMel30) | cleaved PARP positive nuclei fraction (UACC62) | cleaved PARP positive nuclei fraction (WM115) | cleaved PARP positive nuclei fraction (WM1716) | cleaved PARP positive nuclei fraction (WM1745) | cleaved PARP positive nuclei fraction (WM3526) | cleaved PARP positive nuclei fraction (WM3619) | cleaved PARP positive nuclei fraction (WM451Lu) | cleaved PARP positive nuclei fraction (SkMel5) | cleaved PARP positive nuclei fraction (UACC257)
1 | C[C@@H](Oc1cc(-c2cnn(C3CCNCC3)c2)cnc1N)c1c(Cl)ccc(F)c1Cl [Crizotinib] + Cn1nnc2c(C(N)=O)ncn2c1=O [temozolomide] (first compound 0.2 µM, partner dose 2 µM) | 158% | 97.1% | 106% | 97.8% | 46.2% | 109% | 112% | 25.9% | 68.3% | 72% | 104% | 34.8% | 80% | 75% | – | –
2 | Cn1c(=O)n(-c2ccc(C(C)(C)C#N)cc2)c2c3cc(-c4cnc5ccccc5c4)ccc3ncc21 + C=C(c1ccc(C(=O)O)cc1)c1cc2c(cc1C)C(C)(C)CCC2(C)C [Bexarotene] (first compound 0.004 µM, partner dose 2 µM) | 94.1% | 71% | 95.2% | 229% | 50.3% | 86.7% | 59.2% | 260% | 121% | 81.1% | 102% | 55.2% | 86.6% | 104% | – | –
3 | O=C(O)[C@@H]1[O][Sb](=[O])([O][Sb]2(=[O])[O][C@H]([C@H](O)CO)[C@H](O)[C@H](C(=O)O)[O]2)[O][C@H]([C@H](O)CO)[C@@H]1O (some centres not stated) [stibogluconate] + Cn1nnc2c(C(N)=O)ncn2c1=O [temozolomide] (first compound 2 µM, partner dose 2 µM) | 210% | 34.4% | 296% | 100% | 99.5% | 102% | 97.4% | 303% | 85.4% | 121% | 102% | 53.6% | 95.3% | 113% | – | –
4 | Cn1c(=O)n(-c2ccc(C(C)(C)C#N)cc2)c2c3cc(-c4cnc5ccccc5c4)ccc3ncc21 + Nc1cccc2c1CN(C1CCC(=O)NC1=O)C2=O [lenalidomide] (first compound 0.004 µM, partner dose 1 µM) | 78.3% | 66% | 93.9% | 65.8% | 84.5% | 98.7% | 60.1% | 190% | 209% | 170% | 199% | 102% | 102% | 83.1% | – | –
5 | CN1CCN(c2ccc3nc(-c4c(N)c5c(F)cccc5[nH]c4=O)[nH]c3c2)CC1 [Dovitinib] + CC(=O)c1c(C)c2cnc(Nc3ccc(N4CCNCC4)cn3)nc2n(C2CCCC2)c1=O [palbociclib] (first compound 0.1 µM, partner dose 0.04 µM) | 88.6% | 183% | 127% | 81.2% | 116% | 136% | 165% | 96.1% | 60% | 43% | 137% | 86.8% | 128% | 68.4% | – | –
6 | CNC(=O)c1cc(Oc2ccc(NC(=O)Nc3ccc(Cl)c(C(F)(F)F)c3)cc2)ccn1 [sorafenib] + CC(=O)c1c(C)c2cnc(Nc3ccc(N4CCNCC4)cn3)nc2n(C2CCCC2)c1=O [palbociclib] (first compound 0.4 µM, partner dose 0.04 µM) | 149% | 117% | 100% | 125% | 83.4% | 149% | 103% | 76.9% | 93.3% | 45.5% | 99.4% | 224% | 105% | 48.9% | – | –
7 | CN1CCN(c2ccc3nc(-c4c(N)c5c(F)cccc5[nH]c4=O)[nH]c3c2)CC1 [Dovitinib] + C=C(c1ccc(C(=O)O)cc1)c1cc2c(cc1C)C(C)(C)CCC2(C)C [Bexarotene] (first compound 0.1 µM, partner dose 2 µM) | 196% | 102% | 122% | 119% | 120% | 52% | 256% | 33% | 182% | 516% | 120% | 338% | 105% | 71.1% | – | –
8 | Cc1cc(Nc2cc(N3CCN(C)CC3)nc(/C=C/c3ccccc3)n2)n[nH]1 + OCc1c[nH]c2ccccc12 [Indole-3-carbinol] (first compound 0.04 µM, partner dose 0.8 µM) | 48.1% | 153% | 85.2% | 101% | 21.6% | 82.5% | 39.8% | 123% | 148% | 90.2% | 98.3% | 33.6% | 104% | 47.4% | – | –
9 | O=C(O)[C@@H]1[O][Sb](=[O])([O][Sb]2(=[O])[O][C@H]([C@H](O)CO)[C@H](O)[C@H](C(=O)O)[O]2)[O][C@H]([C@H](O)CO)[C@@H]1O (some centres not stated) [stibogluconate] + C=CCNC1=C2C[C@@H](C)C[C@H](OC)[C@H](O)[C@@H](C)/C=C(\C)[C@H](OC(N)=O)[C@@H](OC)/C=C\C=C(/C)C(=O)NC(=CC1=O)C2=O [Tanespimycin] (first compound 2 µM, partner dose 0.002 µM) | 57.1% | 116% | 49.8% | 49.4% | 77.1% | 78.7% | 64.6% | 70.7% | 127% | 29% | 84.6% | 166% | 71.2% | 105% | – | –
10 | O=C(O)[C@@H]1[O][Sb](=[O])([O][Sb]2(=[O])[O][C@H]([C@H](O)CO)[C@H](O)[C@H](C(=O)O)[O]2)[O][C@H]([C@H](O)CO)[C@@H]1O (some centres not stated) [stibogluconate] + O=C(O)c1ccc2c(c1)nc(Nc1cccc(Cl)c1)c1ccncc12 [CX4945] (first compound 2 µM, partner dose 0.4 µM) | 113% | 74.3% | 69.4% | 47.3% | 138% | 118% | 98.8% | 48.4% | 135% | 36.4% | 118% | 553% | 109% | 91.1% | – | –
11 | Nc1ccn([C@@H]2O[C@H](CO)[C@@H](O)C2(F)F)c(=O)n1 [gemcitabine] + Nc1cccc2c1CN(C1CCC(=O)NC1=O)C2=O [lenalidomide] (first compound 0.0004 µM, partner dose 1 µM) | 44.2% | 49.7% | 41.5% | 57.3% | 80.4% | 40% | 99.8% | 152% | 70.5% | 419% | 134% | 96.6% | 140% | 75.2% | – | –
12 | C[C@@H](Oc1cc(-c2cnn(C3CCNCC3)c2)cnc1N)c1c(Cl)ccc(F)c1Cl [Crizotinib] + C=C(c1ccc(C(=O)O)cc1)c1cc2c(cc1C)C(C)(C)CCC2(C)C [Bexarotene] (first compound 0.2 µM, partner dose 2 µM) | 182% | 119% | 45.1% | 62% | 97% | 110% | 82.5% | 432% | 139% | 172% | 97.1% | 98.9% | 70% | 209% | – | –
13 | O=C(O)[C@@H]1[O][Sb](=[O])([O][Sb]2(=[O])[O][C@H]([C@H](O)CO)[C@H](O)[C@H](C(=O)O)[O]2)[O][C@H]([C@H](O)CO)[C@@H]1O (some centres not stated) [stibogluconate] + CS(=O)(=O)CCNCc1ccc(-c2ccc3ncnc(Nc4ccc(OCc5cccc(F)c5)c(Cl)c4)c3c2)o1 [lapatinib] (first compound 2 µM, partner dose 0.8 µM) | 79.8% | 102% | 32.2% | 192% | 111% | 41.2% | 56.8% | 53.2% | 88.3% | 54.6% | 84.1% | 35.1% | 91.9% | 44.9% | – | –
14 | CNC(=O)c1cc(Oc2ccc(NC(=O)Nc3ccc(Cl)c(C(F)(F)F)c3)cc2)ccn1 [sorafenib] + C#Cc1cccc(Nc2ncnc3cc(OCCOC)c(OCCOC)cc23)c1 [erlotinib] (first compound 0.4 µM, partner dose 0.8 µM) | 74.6% | 63.9% | 164% | 38.3% | 43.3% | 80.1% | 33.5% | 204% | 133% | 105% | 142% | 89.5% | 83.5% | 117% | – | –
15 | O=C(O)c1ccc2c(c1)nc(Nc1cccc(Cl)c1)c1ccncc12 + CCCS(=O)(=O)Nc1ccc(F)c(C(=O)c2c[nH]c3ncc(Cl)cc23)c1F [PLX4720] (first compound 0.4 µM, partner dose 0.08 µM) | 106% | 188% | 36.7% | 65% | 74.8% | 101% | 49.1% | 178% | 270% | 353% | 103% | 51.7% | 103% | 72.9% | – | –
16 | CNC(=O)c1cc(Oc2ccc(NC(=O)Nc3ccc(Cl)c(C(F)(F)F)c3)cc2)ccn1 [sorafenib] + CCCS(=O)(=O)Nc1ccc(F)c(C(=O)c2c[nH]c3ncc(Cl)cc23)c1F [PLX4720] (first compound 0.4 µM, partner dose 0.08 µM) | 84.5% | 121% | 55.3% | 73.2% | 57.6% | 102% | 50.1% | 206% | 120% | 128% | 92.9% | 117% | 85.4% | 87.4% | – | –
17 | Cc1cc(Nc2cc(N3CCN(C)CC3)nc(/C=C/c3ccccc3)n2)n[nH]1 + Clc1ccc(Nc2nnc(Cc3ccncc3)c3ccccc23)cc1 [vatalanib] (first compound 0.04 µM, partner dose 2 µM) | 50.9% | 143% | 81.8% | 83.5% | 27.7% | 69.4% | 34.8% | 92.6% | 172% | 73.3% | 109% | 79.2% | 95.4% | 189% | – | –
18 | CO[C@H]1C[C@@H]2CC[C@@H](C)[C@@](O)(O2)C(=O)C(=O)N2CCCC[C@H]2C(=O)O[C@H]([C@H](C)C[C@@H]2CC[C@@H](OCCO)[C@H](OC)C2)CC(=O)[C@H](C)/C=C(\C)[C@@H](O)[C@@H](OC)C(=O)[C@H](C)C[C@H](C)/C=C/C=C/C=C/1C [everolimus] + COc1cc(N2CCC(N3CCN(C)CC3)CC2)ccc1Nc1ncc(Cl)c(Nc2ccccc2S(=O)(=O)C(C)C)n1 [NVP-TAE684] (first compound 0.02 µM, partner dose 0.08 µM) | 93.4% | 105% | 207% | 159% | 309% | – | 390% | 216% | 138% | 89.2% | 119% | 128% | 193% | 113% | 92.4% | 170%
19 | Cn1c(=O)n(-c2ccc(C(C)(C)C#N)cc2)c2c3cc(-c4cnc5ccccc5c4)ccc3ncc21 + CC(=O)c1c(C)c2cnc(Nc3ccc(N4CCNCC4)cn3)nc2n(C2CCCC2)c1=O [palbociclib] (first compound 0.004 µM, partner dose 0.04 µM) | 157% | 42.8% | 163% | 300% | 72.1% | 80.4% | 38.9% | 158% | 78% | 63.8% | 121% | 62.8% | 120% | 97.1% | – | –

Reformatted as tab-separated lines: entries from further up
Row	Compound	cleaved PARP positive nuclei fraction (MZ2-MEL)	cleaved PARP positive nuclei fraction (MeWo)	cleaved PARP positive nuclei fraction (RPMI7951)	cleaved PARP positive nuclei fraction (RVH-421)	cleaved PARP positive nuclei fraction (SkMel28)	cleaved PARP positive nuclei fraction (SkMel2)	cleaved PARP positive nuclei fraction (SkMel30)	cleaved PARP positive nuclei fraction (UACC62)	cleaved PARP positive nuclei fraction (WM115)	cleaved PARP positive nuclei fraction (WM1716)	cleaved PARP positive nuclei fraction (WM1745)	cleaved PARP positive nuclei fraction (WM3526)	cleaved PARP positive nuclei fraction (WM3619)	cleaved PARP positive nuclei fraction (WM451Lu)	cleaved PARP positive nuclei fraction (SkMel5)	cleaved PARP positive nuclei fraction (UACC257)
1	C[C@@H](Oc1cc(-c2cnn(C3CCNCC3)c2)cnc1N)c1c(Cl)ccc(F)c1Cl [Crizotinib] + Cn1nnc2c(C(N)=O)ncn2c1=O [temozolomide] (first compound 0.2 µM, partner dose 2 µM)	158%	97.1%	106%	97.8%	46.2%	109%	112%	25.9%	68.3%	72%	104%	34.8%	80%	75%	–	–
5	CN1CCN(c2ccc3nc(-c4c(N)c5c(F)cccc5[nH]c4=O)[nH]c3c2)CC1 [Dovitinib] + CC(=O)c1c(C)c2cnc(Nc3ccc(N4CCNCC4)cn3)nc2n(C2CCCC2)c1=O [palbociclib] (first compound 0.1 µM, partner dose 0.04 µM)	88.6%	183%	127%	81.2%	116%	136%	165%	96.1%	60%	43%	137%	86.8%	128%	68.4%	–	–
13	O=C(O)[C@@H]1[O][Sb](=[O])([O][Sb]2(=[O])[O][C@H]([C@H](O)CO)[C@H](O)[C@H](C(=O)O)[O]2)[O][C@H]([C@H](O)CO)[C@@H]1O (some centres not stated) [stibogluconate] + CS(=O)(=O)CCNCc1ccc(-c2ccc3ncnc(Nc4ccc(OCc5cccc(F)c5)c(Cl)c4)c3c2)o1 [lapatinib] (first compound 2 µM, partner dose 0.8 µM)	79.8%	102%	32.2%	192%	111%	41.2%	56.8%	53.2%	88.3%	54.6%	84.1%	35.1%	91.9%	44.9%	–	–
15	O=C(O)c1ccc2c(c1)nc(Nc1cccc(Cl)c1)c1ccncc12 + CCCS(=O)(=O)Nc1ccc(F)c(C(=O)c2c[nH]c3ncc(Cl)cc23)c1F [PLX4720] (first compound 0.4 µM, partner dose 0.08 µM)	106%	188%	36.7%	65%	74.8%	101%	49.1%	178%	270%	353%	103%	51.7%	103%	72.9%	–	–
16	CNC(=O)c1cc(Oc2ccc(NC(=O)Nc3ccc(Cl)c(C(F)(F)F)c3)cc2)ccn1 [sorafenib] + CCCS(=O)(=O)Nc1ccc(F)c(C(=O)c2c[nH]c3ncc(Cl)cc23)c1F [PLX4720] (first compound 0.4 µM, partner dose 0.08 µM)	84.5%	121%	55.3%	73.2%	57.6%	102%	50.1%	206%	120%	128%	92.9%	117%	85.4%	87.4%	–	–
